In publication PMC4585786:
Results are given in words; binding and its absence hold for the method and conditions named. Binding seen in cells or lysates may run through a third protein. A result given as binding can be weak or reduced; the word gives no strength.

Molecular target: T1, IKKβ (UniProt O14920)
T1 sequence: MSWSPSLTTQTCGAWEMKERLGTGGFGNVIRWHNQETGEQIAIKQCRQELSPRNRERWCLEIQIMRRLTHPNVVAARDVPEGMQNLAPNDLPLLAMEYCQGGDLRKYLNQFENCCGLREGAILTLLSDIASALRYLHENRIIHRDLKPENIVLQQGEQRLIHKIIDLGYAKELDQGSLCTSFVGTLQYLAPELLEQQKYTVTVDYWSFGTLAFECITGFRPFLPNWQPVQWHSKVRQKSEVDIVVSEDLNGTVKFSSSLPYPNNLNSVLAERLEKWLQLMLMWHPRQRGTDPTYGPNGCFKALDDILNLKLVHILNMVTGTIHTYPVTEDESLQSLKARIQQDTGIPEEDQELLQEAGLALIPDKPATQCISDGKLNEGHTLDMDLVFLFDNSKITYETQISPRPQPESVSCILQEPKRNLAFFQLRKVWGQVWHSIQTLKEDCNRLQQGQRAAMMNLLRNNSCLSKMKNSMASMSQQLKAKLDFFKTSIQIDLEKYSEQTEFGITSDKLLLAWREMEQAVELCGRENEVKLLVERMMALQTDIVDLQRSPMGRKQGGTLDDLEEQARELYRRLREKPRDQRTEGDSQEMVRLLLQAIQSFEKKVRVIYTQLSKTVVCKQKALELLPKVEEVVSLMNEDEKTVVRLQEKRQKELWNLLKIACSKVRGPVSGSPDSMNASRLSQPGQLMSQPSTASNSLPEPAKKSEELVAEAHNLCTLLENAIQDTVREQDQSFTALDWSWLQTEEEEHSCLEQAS
Test: co-IP

**Q.** For “EV71 2C 1-104aa (Enterovirus 71) (domain or fragment)”, which binding is on record?
**A.** binds

**Q.** How did the binding turn out when “EV71 2C 105-125aa (Enterovirus 71) (domain or fragment)” was run?
**A.** binds

**Q.** With “EV71 2C 105-121aa (Enterovirus 71) (domain or fragment)” as the substance, how does the binding read?
**A.** binds

**Q.** With “EV71 2C 126-263aa (Enterovirus 71) (domain or fragment)” as the substance, how does the binding read?
**A.** no binding

**Q.** With “enterovirus 68 2C 105-125aa (domain or fragment)” as the substance, how does the binding read?
**A.** binds
